Test results taken from patent US4743585A (Warner-Lambert Company, priority 1986, dated 1988).
HELM strings list residues between dots; [ac] is acetyl, [am] amide, other brackets name non-standard units.

assay: general procedure: solution-phase peptide synthesis; N,N'-dicyclohexylcarbodiimide / hydroxybenzotriazole; settings: coupling step

Point of comparison: “8-hydroxy-4,9-bis(2-methylpropyl)-3,6,11,14-tetraoxo-1-phenyl-15(phenylmethyl)-2,5,10,-16-tetraazaheptadecan-17-oic acid-1,1-dimethylethyl ester”, step yield 43%. Against it:
- 10,18-dihydroxy-14-methyl-9,17-bis(2-methylpropyl)-1,4,7,12,15-pentaoxo-1- phenyl-N, 3-bis(phenylmethyl)-2,8,13,16-tetraazaeicosan-20-amine — higher, 73%
- BOC-PHE[CH2 NZ]HIS(TRT)-PHSTA-LEU-NHCH2 Ph — higher, 66.4%
- BOC-PHE[CH=CH]GLY-CYSTA-LEU-NHCH2 Ph — higher, 73.3%
- BOC-PHE[CH=CH]GLY-PHSTA-LEU-NHCH2 Ph — higher, 74%
- N-[2-hydroxy-4-[[3-methyl-1-[[(phenylmethyl)amino]carbonyl]butyl]amino]-1- (2-methylpropyl)-4-oxobutyl]-δ-[(3-methyl-1-oxobutyl)amino]benzenehexanamide — higher, 60%
- PEPTIDE1{[Boc].[Phe(CH2SO)Phe].[Sta].A.[Sta].[NHBzl]}$$$$V2.0 — higher, 89%
- PEPTIDE1{[Boc].[Phe(CH2SO)Phe].[Sta].L.[NHBzl]}$$$$V2.0 — higher, 61.6%

same assay, conditions: late stage modification step

Point of comparison: BOC-PHE[CH2 NH]HIS-PHSTA-LEU-NHCH2 Ph, step yield 100%. Against it:
- BOC-PHE[CH2 NZ]HIS-PHSTA-LEU-NHCH2 Ph — lower, 84.38%
- [1-[3-[2-[[1-(cyclohexylmethyl)-2-hydroxy-4-[[3-methyl-1-[[(phenylmethyl)am ino]carbonyl]butyl]-amino]-4-oxobutyl]amino]-2-oxoethyl]oxiranyl]-2-phenylethyl]carbamic acid, 1,1-dimethylethyl ester — lower, 63.04%
